Publication doi:10.1101/430637
Read-outs that look alike come from different tables or passages of the source. No constants are given. Whether binding was seen depends on the method and setting. Binding seen in cells or lysates may run through a third protein. Some results given as binding are weak or reduced against the parent protein; the word gives no strength. For some assays here: Sequences can lack the tags named with a protein. Each block holds one molecule with its values, some of them ahead of it.

Sequences of proteins named here, by UniProt entry; tags and fusion partners are left off.
UniProt O54857: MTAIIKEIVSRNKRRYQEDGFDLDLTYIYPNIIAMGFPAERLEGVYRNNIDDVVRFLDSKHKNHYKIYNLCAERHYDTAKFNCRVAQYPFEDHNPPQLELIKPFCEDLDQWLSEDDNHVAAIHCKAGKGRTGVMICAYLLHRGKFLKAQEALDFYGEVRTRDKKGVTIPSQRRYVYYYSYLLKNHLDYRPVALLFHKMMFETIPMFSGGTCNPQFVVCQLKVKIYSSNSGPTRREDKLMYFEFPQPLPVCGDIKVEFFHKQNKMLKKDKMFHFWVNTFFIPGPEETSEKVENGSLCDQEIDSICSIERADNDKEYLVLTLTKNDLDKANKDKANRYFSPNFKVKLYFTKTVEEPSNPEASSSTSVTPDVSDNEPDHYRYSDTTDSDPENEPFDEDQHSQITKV
UniProt P07632: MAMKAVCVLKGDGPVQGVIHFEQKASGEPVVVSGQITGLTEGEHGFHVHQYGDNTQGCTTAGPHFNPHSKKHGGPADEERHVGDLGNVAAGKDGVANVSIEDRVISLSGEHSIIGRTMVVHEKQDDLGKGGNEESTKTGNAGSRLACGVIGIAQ

Tests used:
Experiment in all cases: co-IP
[1] = biological target: T1, NADPH oxidase-4 (NOX4), endogenous in McArdle hepatocytes (rat (endogenous in McArdle 7777 hepatoma cells)) (UniProt Q924V1)
T1 sequence: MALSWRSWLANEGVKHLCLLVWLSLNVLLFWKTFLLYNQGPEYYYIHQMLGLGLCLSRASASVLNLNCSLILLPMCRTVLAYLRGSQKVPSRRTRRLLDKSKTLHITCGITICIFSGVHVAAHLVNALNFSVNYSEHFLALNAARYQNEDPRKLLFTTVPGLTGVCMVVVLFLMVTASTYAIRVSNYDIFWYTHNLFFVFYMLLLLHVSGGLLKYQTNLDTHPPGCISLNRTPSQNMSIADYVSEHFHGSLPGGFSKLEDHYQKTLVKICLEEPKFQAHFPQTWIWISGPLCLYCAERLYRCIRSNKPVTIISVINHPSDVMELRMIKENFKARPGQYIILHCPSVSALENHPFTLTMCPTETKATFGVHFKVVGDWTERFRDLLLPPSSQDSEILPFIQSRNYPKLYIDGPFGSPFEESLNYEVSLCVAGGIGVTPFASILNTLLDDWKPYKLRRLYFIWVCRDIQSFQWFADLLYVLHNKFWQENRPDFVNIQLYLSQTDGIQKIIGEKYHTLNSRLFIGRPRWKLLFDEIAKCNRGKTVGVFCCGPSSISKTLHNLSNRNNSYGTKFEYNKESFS

[2] = biological target: T2, aquaporin-3 (AQP3), endogenous in McArdle hepatocytes (rat (endogenous in McArdle 7777 hepatoma cells)) (UniProt P47862)
T2 sequence: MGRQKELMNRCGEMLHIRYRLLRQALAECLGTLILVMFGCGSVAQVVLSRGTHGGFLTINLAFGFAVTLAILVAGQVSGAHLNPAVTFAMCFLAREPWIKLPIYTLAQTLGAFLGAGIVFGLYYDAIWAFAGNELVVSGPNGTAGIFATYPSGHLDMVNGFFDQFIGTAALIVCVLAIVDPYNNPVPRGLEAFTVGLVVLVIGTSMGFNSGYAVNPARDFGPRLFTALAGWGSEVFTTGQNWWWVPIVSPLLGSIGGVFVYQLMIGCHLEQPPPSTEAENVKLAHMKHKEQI

[3] = biological target: T1, NADPH oxidase-4 (NOX4), endogenous in McArdle hepatocytes (rat (endogenous in McArdle 7777 hepatoma cells)); remark: listed apart in the source
[4] = biological target: T3, wild-type human NOX4 with C-terminal Flag epitope tag (wt-NOX4-Flag) (human) (UniProt Q9NPH5)
T3 sequence: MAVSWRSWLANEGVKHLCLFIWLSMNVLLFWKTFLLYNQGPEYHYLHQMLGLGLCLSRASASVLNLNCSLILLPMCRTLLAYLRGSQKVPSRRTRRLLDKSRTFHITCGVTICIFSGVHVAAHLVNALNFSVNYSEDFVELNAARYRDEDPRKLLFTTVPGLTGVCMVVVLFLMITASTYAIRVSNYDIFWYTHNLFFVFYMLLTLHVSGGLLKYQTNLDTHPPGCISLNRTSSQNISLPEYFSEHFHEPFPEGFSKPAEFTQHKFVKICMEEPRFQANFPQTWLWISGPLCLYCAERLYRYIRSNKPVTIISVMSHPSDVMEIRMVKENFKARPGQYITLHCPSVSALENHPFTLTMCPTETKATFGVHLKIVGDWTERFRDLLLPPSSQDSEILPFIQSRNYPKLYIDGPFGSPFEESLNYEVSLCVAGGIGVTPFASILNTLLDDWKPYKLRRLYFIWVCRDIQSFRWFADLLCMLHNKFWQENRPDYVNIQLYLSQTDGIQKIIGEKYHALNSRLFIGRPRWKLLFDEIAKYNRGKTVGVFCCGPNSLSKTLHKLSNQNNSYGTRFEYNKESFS

Molecule: PTEN, endogenous in McArdle hepatocytes (from UniProt O54857 1-403) (enzyme)
binding [2]: binds

B2: superoxide dismutase-3 (SOD3, extracellular SOD), endogenous in McArdle hepatocytes (enzyme, UniProt Q08420 16-244)
chain: SVTWTMSDTGESGVDLADRLDLVEKIGDTHSKDLEIWMELGKQREADAREMHAVCRVQPSAMLPPDQPQITGLVLFRQLGPSSRLEASFNLEGFPAEQNTSNHAIHVHEFGDLSQGCESTGPHYNPLGVPHPQHPGDFGNFVVRDGRLWKHRMGLATSLAGPHSILGRAVVVHAGEDDLGKGGNQASVQNGNAGRRLACCVVGTSNSEAWESQTKERKKRRRESECKTT
binding [3]: binds
binding [4]: binds

Now from value to molecule:

binding [1]: no binding
Molecule: superoxide dismutase-1 (cytosolic SOD1), endogenous in McArdle hepatocytes (from UniProt P07632 1-154) (enzyme)

binding [3]: no binding
B1: superoxide dismutase-2 (mitochondrial SOD2), endogenous in McArdle hepatocytes (enzyme, UniProt P07895 25-222)
chain: KHSLPDLPYDYGALEPHINAQIMQLHHSKHHATYVNNLNVTEEKYHEALAKGDVTTQVALQPALKFNGGGHINHSIFWTNLSPKGGGEPKGELLEAIKRDFGSFEKFKEKLTAVSVGVQGSGWGWLGFNKEQGRLQIAACSNQDPLQGTTGLIPLLGIDVWEHAYYLQYKNVRPDYLKAIWNVINWENVSQRYIVCKK
